Laboratory results taken from PubChem BioAssay AID2685 (National Center for Advancing Translational Sciences (NCATS), 2010).
The campaign covered roughly 320,000 compounds. About 2,100 (0.66%) were called active. Inconclusive means that the source gave no clear call. Such entries were picked first, then a sample of the others. Calls follow the shape of the dose curve; as a rule, active = well fitted inhibition curve with a large enough effect in the signal ratio, with a control signal flat (not every such curve was filed as active); inconclusive = small, poorly fitted or top-dose-only effect, or effect the other way, or a change in a side signal; inactive = flat fitted curve, though single readings scatter; the % refers to the signal ratio. Potencies beside an inconclusive call are fits to weak or partial responses and may not hold up.

test: qHTS Assay for Lipid Storage Modulators in Drosophila S3 Cells; details: BODIPY lipid droplet fluorescence, 18-24 h, cells fed with added oleic acid; lipid storage change, negative = inhibition: at 46.1 µM (top of the series) unless noted
Excerpt: NIH Molecular Libraries Probe Production Centers Network [MLPCN] NIH Chemical Genomics Center [NCGC] MLPCN Grant: 1 R03 MH085686-01 Assay Submitter (PI): Beller, Mathias; Max-Planck-Institut fur Biophysikalische Chemie NCGC Assay Overview: Storing lipids as a reservoir for energy or the anabolism of elementary metabolites is a common feature of probably all cells and is conserved from bacteria to humans. The universal cellular lipid storage organelle is the so-called lipid storage droplet (LD). Although ubiquitous, LDs share a simple structure composed of a hydrophobic core that harbors the storage lipids, which is shielded by a droplet-specific phospholipid monolayer to which proteins are attached. The current model of LD biogenesis involves an incorporation of the lipid core into the membrane leaflets of the endoplasmic reticulum (ER) followed by a subsequent budding-like maturation of a LD, which ultimately pinches off. Once released, LD volume can increase by localized lipogenesis or fusion of existing droplet. Storage lipids are re-mobilized enzymatically by lipase activity. Lipase regulation in the adipocyte is heavily studied and involves multiple components including catecholamine signaling, the LD-associated proteins Perilipin and comparative gene identification (CGI-58) and at least two lipases named hormone sensitive lipase (HSL) and adipocyte triglyceride lipase (ATGL). LD regulation outside of the adipocyte is poorly understood and only few components are known. However, there is an urgent need to learn more about ectopic fat depots as mislocalized storage of lipids, for example in the liver or muscle, is an eminent health problem associated with insulin resistance or the metabolic syndrome. We developed a laser-scanning cytometer assay to enable 1,536-well screening and combined the results of the small molecules screen with an RNAi database based on lipid storage.
Triacsin C (Sigma-Aldrich T-4540), an inhibitor of long-chain fatty acyl CoA synthetase that blocks synthesis of triglycerides, was used as a positive control for lipid under-storage. A total of 23 nL of compound solution of different concentrations were transferred to the assay plates using a Kalypsys pin tool equipped with a 1,536-pin array containing 10-nL slotted pins (FP1S10, 0.457-mm diameter, 50.8 mm long; V&P Scientific). One microliter of oleic acid (400 uM) was added, and the plate was lidded with stainless steel rubber gasket lined lids containing pinholes. […] Fluorescence was detected by excitation of the fluorophores with a 488-nm laser on an Acumen Explorer (TTP Lab Tech). The total intensity in channel 2 (500-530 nm) reflected lipid droplet accumulation. Cells were detected using channel 3 (575-640 nm) with 5-um width and 100-um depth filters. The ratio of the number of objects in PMT channel 2 over the number of objects in PMT channel 3 was also calculated. Percent activity was computed relative to an internal control (100% inhibited lipid droplet deposition due to the presence of 20 uM Triacsin C), which was added to 32 wells/plate.
% is scaled to controls: 0 for no effect and ±100 for the full control effect; potency is read from the fitted curve at half-maximal effect.

| SMILES | Potency | lipid storage change, negative = inhibition |
| --- | --- | --- |
| COc1ccc(C)cc1NC(=O)Nc1ccc(C(=O)N2CCCC2)cc1 | inconclusive: 2.59 µM [falling, partial curve] |  |
| CCOC(=O)C1CCCN(CC(=O)NC2CC2)C1 (stereo not given) | inconclusive: 0.517 µM [falling, single point] |  |
| Cc1nnc(SCCC(C)C)[nH]c1=O |  | inconclusive: -2.4% |
| CCOc1ccc(S(=O)(=O)NCCC(=O)NCc2cccnc2)cc1 |  | inconclusive: 17% |
| CCCn1c(SCCN2C(=O)c3ccccc3C2=O)n[nH]c1=O |  | inconclusive: 3.77% |
| COc1ccc(/C=C(\C#N)C(=O)OCC(=O)NCc2ccco2)cc1 |  | inconclusive: -3.43% |
| CC(=O)OCCNC(=O)c1cccnc1 | inconclusive: 0.0206 µM [falling, full curve, poor fit] |  |
| COc1ccc(-c2ccc(SCC(=O)NC3CCCCC3)nn2)cc1OC |  | inconclusive: -80.4% |
| N#CCCN(Cc1cccnc1)C(=O)Nc1ccccc1 | inconclusive: 3.26 µM [activator, partial curve] |  |
| Cc1ccc(NC(=O)CSCC(=O)Nc2cc(Cl)ccc2N2CCN(C)CC2)cc1 |  | inconclusive: 19.2% |
| COc1ccc(S(=O)(=O)N2CC(=O)Nc3ccccc32)cc1F | inconclusive: 6.51 µM [falling, single point] |  |
| CC(C)CCN1CCN(CC#Cc2ccccc2)CC1CCO (stereo not given) |  | inconclusive: 10.2% |
| CC1CCCCN1C(=O)CSc1nc2c(c(=O)n(C)c(=O)n2C)n1C (stereo not given) |  | inconclusive: -86.9% |
| O=C(Nc1ccc(S(=O)(=O)N2CCCCC2)cc1)c1cnccn1 | inconclusive: 14.6 µM [activator, single point] |  |
| COC(=O)C1C(=O)C=C(Nc2ccc(F)cc2F)CC1c1ccc(OC)cc1 (stereo not given) | inconclusive: 29.1 µM [activator, single point] |  |
| Cc1occc1C(=O)Nc1nnc(C2CCCCC2)s1 |  | inconclusive: 24% |
| CCOC(=O)C1=C(C)NC(=O)C(C(N)=O)C12CCCCC2 (stereo not given) | inconclusive: 18.4 µM [falling, single point] |  |
| O=C(COC(=O)c1cnccn1)Nc1cccc2ccccc12 | inconclusive: 6.51 µM [activator, single point] |  |
| Cc1ccccc1C(=O)NCC(=O)NNC(=O)c1cccc(Cl)c1 |  | inconclusive: -87.3% |
| CC(C)CNC(=O)C1CCCN(S(=O)(=O)c2ccc(-n3cnnn3)cc2)C1 (stereo not given) | inconclusive: 0.291 µM [falling, full curve, poor fit] |  |
| CCc1cccc(C)c1NC(=O)CN1C(=O)c2ccccc2S1(=O)=O |  | inconclusive: 4.32% |
| Cc1ccccc1NC(=O)NC1(C(=O)NCc2ccco2)CCCCC1 |  | inconclusive: 122% |
| O=C(Nc1ccc(CN2CCCCC2)cc1)c1cccc(F)c1 |  | inconclusive: 120% |
| COc1ccc2[nH]c(=O)c(CN(C(C)=O)c3ccc(C)cc3C)cc2c1 | inconclusive: 4.11 µM [falling, full curve, poor fit] |  |
| CC(Sc1nnc(-c2ccncc2)n1-c1ccc(F)cc1)C(=O)NC1CC1 (stereo not given) | inconclusive: 1.64 µM [activator, single point] |  |

Molecules above that contain sulfur, in the order listed:

| SMILES | Potency | lipid storage change, negative = inhibition |
| --- | --- | --- |
| Cc1nnc(SCCC(C)C)[nH]c1=O |  | inconclusive: -2.4% |
| CCOc1ccc(S(=O)(=O)NCCC(=O)NCc2cccnc2)cc1 |  | inconclusive: 17% |
| CCCn1c(SCCN2C(=O)c3ccccc3C2=O)n[nH]c1=O |  | inconclusive: 3.77% |
| COc1ccc(-c2ccc(SCC(=O)NC3CCCCC3)nn2)cc1OC |  | inconclusive: -80.4% |
| Cc1ccc(NC(=O)CSCC(=O)Nc2cc(Cl)ccc2N2CCN(C)CC2)cc1 |  | inconclusive: 19.2% |
| COc1ccc(S(=O)(=O)N2CC(=O)Nc3ccccc32)cc1F | inconclusive: 6.51 µM [falling, single point] |  |
| CC1CCCCN1C(=O)CSc1nc2c(c(=O)n(C)c(=O)n2C)n1C (stereo not given) |  | inconclusive: -86.9% |
| O=C(Nc1ccc(S(=O)(=O)N2CCCCC2)cc1)c1cnccn1 | inconclusive: 14.6 µM [activator, single point] |  |
| Cc1occc1C(=O)Nc1nnc(C2CCCCC2)s1 |  | inconclusive: 24% |
| CC(C)CNC(=O)C1CCCN(S(=O)(=O)c2ccc(-n3cnnn3)cc2)C1 (stereo not given) | inconclusive: 0.291 µM [falling, full curve, poor fit] |  |
| CCc1cccc(C)c1NC(=O)CN1C(=O)c2ccccc2S1(=O)=O |  | inconclusive: 4.32% |
| CC(Sc1nnc(-c2ccncc2)n1-c1ccc(F)cc1)C(=O)NC1CC1 (stereo not given) | inconclusive: 1.64 µM [activator, single point] |  |

Following part:

| SMILES | Potency | lipid storage change, negative = inhibition |
| --- | --- | --- |
| CC1=C(C(=O)N2CCOCC2)C(c2c(C)cc(C)cc2C)NC(=S)N1 (stereo not given) |  | inconclusive: 26.2% |
| O=C(O)C1CC=CCC1C(=O)N1CCCC1 (stereo not given) |  | inconclusive: 68.8% |
| COc1ccc(F)cc1S(=O)(=O)N1CCC(C(N)=O)CC1 | inconclusive: 25.9 µM [falling, partial curve, poor fit] |  |
| COc1ccc(S(=O)(=O)NC(CC(=O)NCc2ccco2)C(C)C)cc1 (stereo not given) | inconclusive: 23.1 µM [falling, partial curve, poor fit] |  |
| O=C(Cc1ccc2c(c1)OCCO2)Nc1ccc(Cl)c(S(=O)(=O)N2CCOCC2)c1 | inconclusive: 14.6 µM [falling, partial curve, poor fit] |  |
| CCCCCCC(O)(c1ccc(OC)cc1)C(CN1CCOCC1)c1ccccc1 (stereo not given) |  | inconclusive: -1.12% |
| CCC(C)NC(=O)C1c2ccccc2C(=O)N1Cc1ccc(F)cc1 (stereo not given) |  | inconclusive: -18.8% |
| CCOc1ccc(NC(=O)CC2C(=O)N(c3cccc(OC)c3)C(=O)N2CCOC)cc1 (stereo not given) |  | inconclusive: 7.65% |
| CC(C)Oc1ccccc1C1CC(=O)Nc2cc3c(cc21)OCO3 (stereo not given) | inconclusive: 11.6 µM [falling, partial curve] |  |
| CCCOc1ccc(C(=O)Nc2ccc(S(=O)(=O)Nc3onc(C)c3C)cc2)cc1 |  | inconclusive: -11.6% |
| Cc1c(C(=O)Nc2nc(-c3ccccn3)cs2)oc2ccccc12 | inconclusive: 20.6 µM [cytotoxic, single point] |  |
| Cc1noc(C)c1COC(=O)CCc1nc2ccccc2c(=O)[nH]1 | inconclusive: 0.0046 µM [activator, full curve, poor fit] |  |
| Oc1c(/C=N/Nc2cccc3cccnc23)ccc2ccccc12 |  | inconclusive: 39.1% |
| CCOc1cccc(OCCOc2ccccc2[N+](=O)[O-])c1 |  | inconclusive: -0.433% |
| CC(=O)c1ccc(NC(=O)c2ccc(N3CCCC3=O)cc2)cc1 |  | inconclusive |
| NS(=O)(=O)c1ccc(NC(=O)CSc2nc(Nc3ccccc3)nc(N3CCOCC3)n2)cc1 | inconclusive: 0.259 µM [activator, full curve, poor fit] |  |
| CC(=O)Nc1c(-c2ccccc2)nc2ncccn12 |  | inconclusive: -0.0366% |
| CC(OC(=O)c1ccc(NS(=O)(=O)c2ccc3[nH]c(=O)[nH]c3c2)cc1)C(N)=O (stereo not given) |  | inconclusive: 38.2% |
| COc1ccc(NC(=O)c2cncc(Br)c2)cc1S(N)(=O)=O |  | inconclusive: -11.9% |
| Cn1ccnc1C1CCCCN1C(=O)c1cc(COc2ccc(F)cc2Cl)on1 (stereo not given) |  | inconclusive: -0.0264% |
| CC1CN(C(=O)c2cc3c(=O)n4ccccc4nc3s2)CC(C)O1 (stereo not given) | inconclusive: 23.1 µM [activator, single point] |  |
| COc1ccc(NC(=O)Nc2cccc3ccccc23)c(OC)c1 |  | inconclusive: -21% |
| O=S(=O)(NCCc1ccccc1)c1ccc(Br)cc1 | inconclusive: 0.184 µM [activator, full curve, poor fit] |  |
| O=C(COC(=O)c1ccc(O)cc1)Nc1ccc(Cl)cc1 |  | inconclusive: 11.2% [at 9.22 µM] |
| Cc1ccc(S(=O)(=O)N2[C@@H](c3ccccc3F)C(C(=O)O)=CC[C@H]2c2cccc(C)c2)cc1 |  | inconclusive: 97.7% |

| SMILES | Potency | lipid storage change, negative = inhibition |
| --- | --- | --- |
| Cc1ccc(-n2nc(C)c(C(=O)Nc3cccc(C(=O)NC4CC4)c3)n2)c(C)c1 | inconclusive: 0.82 µM [activator, single point] |  |
| COc1ccc2[nH]cc(CCNC(=O)c3ccc([N+](=O)[O-])cc3)c2c1 |  | inconclusive: -22.8% |
| COc1ccc(C)cc1NC(=O)COC(=O)c1ccc2ccccc2n1 | inconclusive: 29.1 µM [activator, single point] |  |
| C=CCn1c(N)cc(=O)nc1SCC(=O)Nc1ccc(C(=O)OC)cc1 |  | inconclusive: 14.2% |
| COc1ccccc1N=Nc1nc(-c2ccccc2)c(-c2ccccc2)[nH]1 | inconclusive: 29.1 µM [cytotoxic, single point] |  |
| O=C(CCCN1CCC(c2ccccc2)C1)c1ccc2c(c1)OCCO2 (stereo not given) | inconclusive: 1.16 µM [falling, full curve, poor fit] |  |
| CN1CCN(c2ccc(NC(=O)c3ccc4c(c3)OCCO4)cc2)CC1 |  | inconclusive: 14% |
| COc1cc2ccc(=O)oc2c(O[C@@H]2O[C@H](CO)[C@@H](O)[C@H](O)[C@H]2O)c1O |  | inconclusive: 137% |
| CCc1nnc(NC(=O)[C@@H]2CCCN2S(=O)(=O)c2ccc3c(c2)OCCO3)s1 | inconclusive: 6.51 µM [falling, single point] |  |
| CS(=O)(=O)N(Cc1ccccc1)c1ccccc1C(=O)O | inconclusive: 2.06 µM [falling, single point] |  |
| COc1ccc(C(=O)Nc2c(Cl)cc(Cl)cc2C(=O)N2CCC(C)CC2)cc1 |  | inconclusive: 24.1% |
| Cc1nn(-c2ccc(Cl)cc2Cl)c(C)c1C(=O)O |  | inconclusive: 44% |
| Cc1cccc(/C=N/n2c(C)nc3ccccc3c2=O)c1 |  | inconclusive: 19.9% |
| Cc1ccccc1Nc1c(-c2ccncc2)nc2ccc(Br)cn12 | inconclusive: 2.06 µM [activator, full curve] |  |
| Cc1nc2ccc(Cl)cc2c(-c2ccccc2Cl)c1CC(=O)O | inconclusive: 20.6 µM [activator, partial curve, poor fit] |  |
| CN(C)CCN(C(=O)c1ccc(C(=O)c2ccccc2)cc1)c1nc2cc3c(cc2s1)OCO3 |  | inactive |
| CCOc1ccc(C2=Nn3c(nnc3-c3ccccc3OC)SC2)cc1 |  | inconclusive: 70.2% |
| CCCCNS(=O)(=O)c1ccc(OC)cc1 | inconclusive: 0.103 µM [falling, full curve, poor fit] |  |
| CCc1cc2c(=O)c(-n3cnc4ccccc43)coc2cc1O |  | inconclusive: -13.6% |
| CCOc1ccc2[nH]c(SCC(=O)OC)c([N+](=O)[O-])c2c1 |  | inconclusive: 12% |
| Cc1ccc(C)n1NC(=O)c1ccccc1O | inconclusive: 6.51 µM [activator, partial curve, poor fit] |  |
| O=C(CSc1nnc2ccc(-c3ccccn3)nn12)Nc1ccccc1F |  | inconclusive: 19.3% |
| O=C1OCc2ccc(NC(=O)c3sccc3Cl)cc21 |  | inconclusive: 18.5% |
| C(=N\Nc1nncc2ccccc12)/c1ccccn1 |  | inconclusive: -46.8% |
| Cc1nnc(SCC(=O)Nc2ccc(C(N)=O)cc2)n1-c1ccccc1 |  | inconclusive: -19.4% |
